Measurements taken from PubChem BioAssay AID1745850 (National Center for Advancing Translational Sciences (NCATS), 2022).
The campaign covered roughly 2,100 compounds. About 260 (12%) were called active. The inconclusive results got no clear call from the source; some entries with a clear call stand among them for comparison. Calls follow the shape of the dose curve; as a rule, active = well fitted cell-killing curve with a large enough effect; inconclusive = small, poorly fitted or top-dose-only effect, or effect the other way; inactive = flat fitted curve, though single readings scatter. A potency beside an inconclusive call is a rough fit, not a confirmed value.

Test: Viability Counterscreen for Confirmatory qHTS for Inhibitors of ATXN expression; also: nearly all actives have a fitted effect of over 50% in size
Settings: HEK-293 ATXN2-luc cells viability, CellTiter-Fluor, 24 h; activity change, negative = cytotoxicity: at 11.5 µM (top of the series) unless noted
Method in brief: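 Luminescence read-out (SteadyGlo, 5 min) followed a 30 min Gly-Phe-AFC (25 uM final) viability fluorescence read. ATXN2-luciferase reporter cells were exposed 24 h to a dilution series. Medium-only wells served as the 100% inhibition reference.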
Potency is read from the fitted curve at half-maximal effect.

Structure (SMILES)	Potency	activity change, negative = cytotoxicity
Cc1nc2c(OCc3ccc(C#N)cc3)cccn2c1N(C)Cc1cccs1	inconclusive: 39.8 µM [cytotoxic, single point]	–
COc1ccccc1NC(=O)CSc1n[nH]c(-c2ccccn2)n1	inconclusive: 28.2 µM [cytotoxic, single point]	–
Cc1nc2c(OCc3cccc(Cl)c3)cccn2c1N(C)Cc1cccs1	inconclusive: 39.8 µM [cytotoxic, single point]	–
COc1ccc(CNC(=O)Nc2nc(C(N)Cc3ccc(Cl)cc3)cs2)cc1 (configuration not stated)	inconclusive: 39.8 µM [cytotoxic, single point]	–
O=C(CCCN1C(=O)/C(=C/c2ccccc2Cl)SC1=S)Nc1ccccn1	inconclusive: 35.5 µM [cytotoxic, single point]	–
O=C(C1CCCCC1)N1CCN(c2ccnc3cc(Cl)ccc23)CC1	inconclusive: 39.8 µM [cytotoxic, single point]	–
N/C(=C\C(=O)c1cc(Cl)ccc1O)C(Cl)(Cl)Cl	inconclusive: 3.16 µM [cytotoxic, partial curve]	–
COc1ccc(/C=C/C(=O)Nc2cccc(F)c2)cc1S(=O)(=O)N1CCOCC1	inconclusive: 12.6 µM [cytotoxic, partial curve, poor fit]	–
C/C(=C\C(=O)c1ccc(Br)cc1)NNC(=O)c1ccc(O)cc1	inconclusive: 25.1 µM [cytotoxic, single point]	–
CCOc1cc(/C=N\NC(=O)c2ccc(NC(=O)CC)cc2)ccc1OC(=O)c1ccccc1	inconclusive: 39.8 µM [cytotoxic, single point]	–
COC(=O)Cc1[nH]n(-c2nc3ccccc3s2)c(=O)c1C(C)=Nc1ccc(C)cc1	–	inactive: -25% [at 57.5 µM]
NS(=O)(=O)c1ccc(N2N=C(c3ccc(Br)cc3)CC2c2ccc(F)cc2)cc1 (configuration not stated)	–	inactive: -21.3% [at 57.5 µM]
Cc1cc(Oc2ccc(Cl)cc2)nc(-c2ccccn2)n1	–	inactive: -12.9% [at 57.5 µM]
Cn1c(=O)c(C#N)c(-c2ccc(F)cc2)c2cc(C(=O)c3cc(Cl)cc(Cl)c3O)cnc21	inconclusive: 3.16 µM [cytotoxic, partial curve]	–
Cc1ccccc1C(=O)N1CCN(c2ccc(NC(=O)c3ccco3)cc2Cl)CC1	inconclusive: 35.5 µM [cytotoxic, partial curve, poor fit]	–
CC(=O)N/N=C/c1cc(C(C)(C)C)cc(/C=N/NC(C)=O)c1O	inconclusive: 3.55 µM [rising, partial curve]	–
Cc1ccc(C(C)C)c(OCc2ccc(C(=O)N/N=C/c3ccc(O)cc3O)cc2)c1	inconclusive: 3.98 µM [cytotoxic, full curve]	–
Cc1nc(C(F)(F)F)c(C(=O)N/N=C(\N)c2ccccn2)s1	inconclusive: 28.2 µM [cytotoxic, partial curve]	–
CCCc1nc(NC2CCCCC2)c(C#N)c2c1COC(C)(C)C2	–	inactive: 4.08%
O=C(N/N=C/c1cc([N+](=O)[O-])ccc1O)c1c[nH]c2ccccc12	inconclusive: 25.1 µM [cytotoxic, partial curve, poor fit]	–
Cc1cccc(N(CC(O)CON=C2c3ccccc3-c3ccccc32)S(C)(=O)=O)c1 (configuration not stated)	inconclusive: 39.8 µM [cytotoxic, single point]	–
C=CCc1cccc(/C=N/NC(=O)CNc2ccccc2)c1O	–	inactive: -15.6%
NC(Cc1ccc(C(F)(F)F)cc1)c1csc(Nc2ccc(C(=O)NCc3ccco3)cn2)n1 (configuration not stated)	inconclusive: 5.62 µM [cytotoxic, single point]	–

A different layout for some results above.
COc1ccc(CNC(=O)Nc2nc(C(N)Cc3ccc(Cl)cc3)cs2)cc1 (configuration not stated)
  Potency: inconclusive: 39.8 µM [cytotoxic, single point]
O=C(CCCN1C(=O)/C(=C/c2ccccc2Cl)SC1=S)Nc1ccccn1
  Potency: inconclusive: 35.5 µM [cytotoxic, single point]
O=C(C1CCCCC1)N1CCN(c2ccnc3cc(Cl)ccc23)CC1
  Potency: inconclusive: 39.8 µM [cytotoxic, single point]
N/C(=C\C(=O)c1cc(Cl)ccc1O)C(Cl)(Cl)Cl
  Potency: inconclusive: 3.16 µM [cytotoxic, partial curve]

3 compounds out of the list, arranged by molecular weight, ascending:
Structure (SMILES)	Potency	activity change, negative = cytotoxicity
N/C(=C\C(=O)c1cc(Cl)ccc1O)C(Cl)(Cl)Cl	inconclusive: 3.16 µM [cytotoxic, partial curve]	–
COc1ccc(CNC(=O)Nc2nc(C(N)Cc3ccc(Cl)cc3)cs2)cc1 (configuration not stated)	inconclusive: 39.8 µM [cytotoxic, single point]	–
NS(=O)(=O)c1ccc(N2N=C(c3ccc(Br)cc3)CC2c2ccc(F)cc2)cc1 (configuration not stated)	–	inactive: -21.3% [at 57.5 µM]

(next part)

Structure (SMILES)	Potency	activity change, negative = cytotoxicity
CCN(CC)CCNC1=NCCn2c1cc1cc(OC)ccc12	inconclusive: 2.24 µM [cytotoxic, partial curve, poor fit]	–
Cc1nnc(SC(C)C(=O)Nc2ccc(Cl)cn2)n1Cc1ccccc1 (configuration not stated)	–	inactive: -12.7% [at 57.5 µM]
Cc1c(Cl)c([N+](=O)[O-])nn1Cc1ccc(C(=O)N/N=C\c2cc(Cl)ccc2O)o1	inconclusive: 1.58 µM [cytotoxic, partial curve, poor fit]	–
O=C(/C=C/NNC(=O)c1ccccc1)c1ccc([N+](=O)[O-])cc1	active: 12.6 µM	–
CC(=O)NC(c1ccco1)c1ccc2cccnc2c1O (configuration not stated)	inconclusive: 3.16 µM [cytotoxic, single point]	–
CN(C)CCCN(C(=O)c1ccc2c(c1)CCCC2)c1nc2cc3c(cc2s1)OCO3	inconclusive: 28.2 µM [cytotoxic, single point]	–
CC(C)CC(NC(=O)c1ccc(Cl)cc1)C(=O)OCC(=O)c1ccc2c(c1)NC(=O)CO2 (configuration not stated)	active: 28.2 µM	–
Cc1nc2ccccc2n1/N=C/c1ccc([N+](=O)[O-])o1	inconclusive: 28.2 µM [cytotoxic, single point]	–
CCOC(=O)N1CCN(c2ccnc3cc(Cl)ccc23)CC1	–	inactive: -11.6%
C/C(=N\NC(=O)c1cc(-c2cccnc2)nc2ccccc12)c1ccc(O)cc1O	active: 11.2 µM	–
CC1CCN(Cc2c(C(=O)N/N=C/c3cc(Br)ccc3O)nnn2-c2nonc2N)CC1	–	inactive: -17%
COc1cc(OC)cc(-c2cc3nc(C)c(CCC(=O)O)c(C)n3n2)c1	–	inactive: -13.3% [at 57.5 µM]
CN(C)c1ccc(NC(=O)Nc2nc(C(N)C3CCCCC3)cs2)cc1 (configuration not stated)	inconclusive: 35.5 µM [cytotoxic, partial curve, poor fit]	–
COc1ccc(-c2csc(N(CCCN3CCOCC3)C(=O)c3ccco3)n2)cc1	inconclusive: 8.91 µM [cytotoxic, single point]	–
CCc1ccc(-c2csc(NC(=O)C3CC(=O)N(c4ccc5c(c4)OCCO5)C3)n2)cc1 (configuration not stated)	inconclusive: 15.8 µM [cytotoxic, partial curve, poor fit]	–
O=C(N/N=C/c1cc(Cl)cc([N+](=O)[O-])c1O)c1cccc(S(=O)(=O)N2CCOCC2)c1	inconclusive: 3.55 µM [cytotoxic, single point]	–
S=C(Nc1cc(Cl)ccc1Oc1ccccc1)N1CCN(c2ccccn2)CC1	inconclusive: 31.6 µM [cytotoxic, single point]	–
Cc1ccc(S(=O)(=O)/C(=C/Cl)NC(=O)c2ccccc2)cc1	active: 22.4 µM	–
CCCCNC(=NCc1cccc(C(F)(F)F)c1)Nc1ccccc1	inconclusive: 7.08 µM [cytotoxic, single point]	–
CN(C)CCNc1ncnc2c1ncn2[C@H]1CN(Cc2ccc(-c3ccccc3)cc2)C[C@@H](CO)O1	inconclusive: 25.1 µM [cytotoxic, single point]	–
CCN(CC)S(=O)(=O)c1cccc(NC(=O)Nc2cccc(C(F)(F)F)c2)c1	inconclusive: 3.16 µM [cytotoxic, partial curve]	–
Fc1ccc2[nH]c3c(N4CCc5ccccc5C4)ncnc3c2c1	inconclusive: 25.1 µM [cytotoxic, partial curve]	–
Cc1nnc(N/N=C/c2ccccn2)[nH]c1=O	inconclusive: 3.16 µM [cytotoxic, full curve]	–

Structure (SMILES)	Potency	activity change, negative = cytotoxicity
CN(C)CCC(c1ccc(Br)cc1)c1ccccn1 (configuration not stated)	–	inactive: -18.7% [at 57.5 µM]
O=c1nc(N/N=C/c2ccccn2)cn[nH]1	inconclusive: 22.4 µM [cytotoxic, single point]	–
CCc1ccc(NC(=O)COc2ccc(/C=C(/C#N)c3nc4ccccc4[nH]3)cc2OC)cc1	inconclusive: 39.8 µM [rising, single point]	–
Cc1nc(-c2ccc(C(F)(F)F)cc2)sc1C(=O)NN	inconclusive: 15.8 µM [cytotoxic, partial curve, poor fit]	–
CC1=CC(C)(C)Nc2ccc(OC(=O)CN3C(=O)c4cccc5cccc(c45)C3=O)cc21	inconclusive: 39.8 µM [cytotoxic, partial curve, poor fit]	–
OC(c1ccccn1)(c1ccccn1)c1ccccn1	–	inactive: -12.8%
O=c1c2ccccc2sc2c(CO)ccc(NCCN3CCCCC3)c12	active: 22.4 µM	–
O=C(CN1C(=O)c2ccccc2S1(=O)=O)N1CCc2ccccc21	–	inactive: -6.71%
COc1ccc(Cl)cc1NC(=O)Nc1cccc([N+](=O)[O-])c1C	–	inactive: -5.63%
CCCC(=O)Nc1ccc2nc(SCC(=O)N3CCCC3)sc2c1	–	inactive: -17% [at 57.5 µM]
COc1cc(NC(=O)N2CCc3nc(Nc4cc(Cl)cc(Cl)c4)ncc3C2)cc(OC)c1OC	inconclusive: 3.55 µM [cytotoxic, single point]	–
O=S(=O)(Nc1cccc2cccnc12)c1ccccc1	active: 1.78 µM	–
CCCCN1C(=O)/C(=C2/Sc3ccccc3N2C)S/C1=N\c1ncn[nH]1	–	inactive: -13.9% [at 57.5 µM]
CCc1ccc(C(=O)NNC(=O)C2CCN(c3ncnc4sc(C)c(C)c34)CC2)cc1	–	inactive: -21.9%
O=C(CSc1nc(Nc2ccccc2)nc(N2CCOCC2)n1)Nc1cc(Cl)ccc1O	inconclusive: 39.8 µM [cytotoxic, single point]	–
COc1ccc(Cn2c(-c3ccc(C)cc3)c[n+]3ccccc23)cc1	inconclusive: 2 µM [cytotoxic, partial curve]	–
C/C(=N\NC(=O)c1ccc(CN2CCc3ccccc3C2)cc1)c1ccccc1O	–	inactive: -15.3%
O=S(=O)(c1ccc(F)cc1)c1snnc1-c1ccccc1	inconclusive: 12.6 µM [cytotoxic, partial curve, poor fit]	–
O=C(NNC(=O)C12CC3CC(CC(C3)C1)C2)c1ccccn1	inconclusive: 17.8 µM [cytotoxic, partial curve, poor fit]	–
Cc1ccc(C(=O)N/C(=C\c2ccc(-c3ccc(Cl)cc3)o2)C(=O)NCCCN(C)C)cc1	inconclusive: 39.8 µM [cytotoxic, single point]	–
COc1ccc(/C=C/C(=O)c2cc3cccc(OC)c3oc2=O)cc1	inconclusive: 39.8 µM [cytotoxic, single point]	–
